The values that follow come from PMC10123114.

These are yes or no findings as the source states them, for the method shown. Binding seen in cells or lysates may run through a third protein. Some binding calls cover weakened binding; strength is not graded here. For some of these results: Where a sequence is shown, tags or fusion partners need not be part of it.

The target in test [1] is T1, GFP-SHQ1 (UniProt Q6PI26).
T1 sequence: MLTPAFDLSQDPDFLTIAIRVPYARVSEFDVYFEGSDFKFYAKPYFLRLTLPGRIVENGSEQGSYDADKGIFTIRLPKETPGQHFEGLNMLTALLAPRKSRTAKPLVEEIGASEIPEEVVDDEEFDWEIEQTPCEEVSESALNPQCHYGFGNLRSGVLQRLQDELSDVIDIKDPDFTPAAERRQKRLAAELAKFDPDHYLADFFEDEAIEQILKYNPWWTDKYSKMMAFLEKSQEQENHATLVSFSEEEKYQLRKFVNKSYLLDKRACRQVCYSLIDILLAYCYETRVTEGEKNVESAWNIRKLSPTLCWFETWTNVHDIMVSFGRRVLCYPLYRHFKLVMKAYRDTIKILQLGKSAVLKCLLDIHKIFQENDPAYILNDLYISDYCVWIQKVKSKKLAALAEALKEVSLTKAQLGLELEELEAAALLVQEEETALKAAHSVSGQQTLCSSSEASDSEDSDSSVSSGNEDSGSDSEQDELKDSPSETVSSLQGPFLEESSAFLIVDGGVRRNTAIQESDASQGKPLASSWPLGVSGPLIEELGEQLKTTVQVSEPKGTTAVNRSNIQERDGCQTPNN
Kind of test: co-IP; anti-Flag M2 affinity gel or GFP-Trap on total extracts of HEK293 Flp-In T-REx cells, tagged bait expressed 3 h; RSB150 (10 mM Tris-HCl pH 7.5, 150 mM NaCl, 2.5 mM MgCl2) with 0.05% NP-40, 2 h at 4 °C; without RNase A; western blot.

The target in test [2] is T2, Flag-NHP2 (UniProt Q9NX24).
T2 sequence: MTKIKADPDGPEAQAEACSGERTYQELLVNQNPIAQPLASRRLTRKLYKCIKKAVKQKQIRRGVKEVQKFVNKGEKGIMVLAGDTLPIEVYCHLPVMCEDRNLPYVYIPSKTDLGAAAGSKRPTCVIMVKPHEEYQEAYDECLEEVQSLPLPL
The description is as above.

Test [3] concerns the target T2, Flag-NHP2. Kind of test: co-IP + co-sedimentation; Flag-NHP2 expressed 12 h, anti-Flag IP, elution with Flag peptide, concentration, 10-30% glycerol gradient (18 fractions), western blot of fractions.
Test [4] addresses T1, GFP-SHQ1. Kind of test: co-IP; as a2 but with RNase A at 100 μg/ml in the IP; tagged bait expressed 3 h; western blot. (Immunoblotting shows a protein as a band on a membrane.)
Test [5] concerns the target T2, Flag-NHP2. The test is described as above.
The target of test [6] is T2, Flag-NHP2. Kind of test: co-IP + co-sedimentation; Flag-NHP2 expressed 3 h, anti-Flag IP, elution with Flag peptide, concentration, 10-30% glycerol gradient (18 fractions), western blot of fractions.
Test [7] concerns the target T2, Flag-NHP2. Kind of test: condition: only Flag-NHP2 expressed for 3 h (associated after 12 h); co-IP; anti-Flag M2 affinity gel or GFP-Trap on total extracts of HEK293 Flp-In T-REx cells, tagged bait expressed 3 h; RSB150 (10 mM Tris-HCl pH 7.5, 150 mM NaCl, 2.5 mM MgCl2) with 0.05% NP-40, 2 h at 4 °C; without RNase A; western blot.
Test [8] has as its target T3, Flag-NAF1 (UniProt Q96HR8).
T3 sequence: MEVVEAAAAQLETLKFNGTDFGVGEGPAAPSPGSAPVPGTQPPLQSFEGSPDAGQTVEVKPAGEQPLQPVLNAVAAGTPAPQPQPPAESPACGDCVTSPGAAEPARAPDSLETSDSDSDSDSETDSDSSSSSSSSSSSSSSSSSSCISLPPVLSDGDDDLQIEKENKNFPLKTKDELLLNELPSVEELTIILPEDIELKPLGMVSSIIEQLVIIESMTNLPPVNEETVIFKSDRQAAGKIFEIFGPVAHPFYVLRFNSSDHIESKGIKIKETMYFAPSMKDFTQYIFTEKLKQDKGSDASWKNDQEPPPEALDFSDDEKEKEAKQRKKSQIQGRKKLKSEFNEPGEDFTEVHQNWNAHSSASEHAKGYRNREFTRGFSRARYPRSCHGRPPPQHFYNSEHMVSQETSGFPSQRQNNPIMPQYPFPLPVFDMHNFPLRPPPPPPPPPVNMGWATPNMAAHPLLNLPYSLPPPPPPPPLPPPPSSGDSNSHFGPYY
Kind of test: co-IP; anti-Flag M2 affinity gel or GFP-Trap on total extracts of HEK293 Flp-In T-REx cells, tagged bait expressed 3 h; RSB150 (10 mM Tris-HCl pH 7.5, 150 mM NaCl, 2.5 mM MgCl2) with 0.05% NP-40, 2 h at 4 °C; without RNase A; western blot.

The target in test [9] is T3, Flag-NAF1. Kind of test: co-IP + co-sedimentation; Flag-NAF1, anti-Flag IP in the presence of RNase A (100 μg/ml), elution with Flag peptide, 10-30% glycerol gradient (18 fractions), western blot of fractions.
The target of test [10] is T3, Flag-NAF1. Kind of test: co-IP; as a2 but with RNase A at 100 μg/ml in the IP; tagged bait expressed 3 h; western blot.
The target in test [11] is T2, Flag-NHP2. Kind of test: co-IP; anti-Flag M2 affinity gel on extracts of HEK293 Flp-In T-REx cells expressing Flag-NHP2 for 12 h; with or without RNase A; cells untreated or treated with 20 μM ADOX for 24 h; western blot.
For test [12], the target named is T3, Flag-NAF1. Kind of test: co-IP + co-sedimentation; Flag-NAF1, anti-Flag IP in the absence of RNases, elution with Flag peptide, 10-30% glycerol gradient (18 fractions), western blot of fractions.
The target in test [13] is T4, NHP2 (endogenous) (human (endogenous in HEK293)) (UniProt Q9NX24).
T4 sequence: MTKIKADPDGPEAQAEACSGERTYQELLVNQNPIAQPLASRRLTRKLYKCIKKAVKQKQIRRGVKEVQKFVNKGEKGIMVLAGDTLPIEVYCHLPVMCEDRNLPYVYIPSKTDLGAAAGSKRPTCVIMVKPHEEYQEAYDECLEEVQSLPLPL
Kind of test: co-IP; anti-NHP2 antibody bound to protein A-Sepharose on HEK293 cell extracts (endogenous proteins); RSB150 with 0.05% NP-40; western blot.

B1: NAF1 (endogenous) (protein, UniProt Q96HR8 1-494)
chain: MEVVEAAAAQLETLKFNGTDFGVGEGPAAPSPGSAPVPGTQPPLQSFEGSPDAGQTVEVKPAGEQPLQPVLNAVAAGTPAPQPQPPAESPACGDCVTSPGAAEPARAPDSLETSDSDSDSDSETDSDSSSSSSSSSSSSSSSSSSCISLPPVLSDGDDDLQIEKENKNFPLKTKDELLLNELPSVEELTIILPEDIELKPLGMVSSIIEQLVIIESMTNLPPVNEETVIFKSDRQAAGKIFEIFGPVAHPFYVLRFNSSDHIESKGIKIKETMYFAPSMKDFTQYIFTEKLKQDKGSDASWKNDQEPPPEALDFSDDEKEKEAKQRKKSQIQGRKKLKSEFNEPGEDFTEVHQNWNAHSSASEHAKGYRNREFTRGFSRARYPRSCHGRPPPQHFYNSEHMVSQETSGFPSQRQNNPIMPQYPFPLPVFDMHNFPLRPPPPPPPPPVNMGWATPNMAAHPLLNLPYSLPPPPPPPPLPPPPSSGDSNSHFGPYY
On to B1, for which the binding result in the test with GFP-SHQ1 [1], with Flag-NHP2 [2], with Flag-NHP2 [3], with GFP-SHQ1 [4], in the test with Flag-NHP2 [5] and with Flag-NHP2 [6] was “binds” in each case.

B2: NHP2 (endogenous) (protein, UniProt Q9NX24 1-153)
chain: MTKIKADPDGPEAQAEACSGERTYQELLVNQNPIAQPLASRRLTRKLYKCIKKAVKQKQIRRGVKEVQKFVNKGEKGIMVLAGDTLPIEVYCHLPVMCEDRNLPYVYIPSKTDLGAAAGSKRPTCVIMVKPHEEYQEAYDECLEEVQSLPLPL
In the case of B2, the binding result with Flag-NHP2 [7] is “no binding”; in the test with GFP-SHQ1 [1], “binds”; with Flag-NAF1 [8], “binds”; with Flag-NAF1 [9], “binds”; in the test with Flag-NHP2 [3], “binds”; with GFP-SHQ1 [4], “binds”. The binding result with Flag-NAF1 [10], with Flag-NHP2 [11] and with Flag-NAF1 [12] was “binds” in each case.

B3: SHQ1 (endogenous) (protein, UniProt Q6PI26 1-577)
chain: MLTPAFDLSQDPDFLTIAIRVPYARVSEFDVYFEGSDFKFYAKPYFLRLTLPGRIVENGSEQGSYDADKGIFTIRLPKETPGQHFEGLNMLTALLAPRKSRTAKPLVEEIGASEIPEEVVDDEEFDWEIEQTPCEEVSESALNPQCHYGFGNLRSGVLQRLQDELSDVIDIKDPDFTPAAERRQKRLAAELAKFDPDHYLADFFEDEAIEQILKYNPWWTDKYSKMMAFLEKSQEQENHATLVSFSEEEKYQLRKFVNKSYLLDKRACRQVCYSLIDILLAYCYETRVTEGEKNVESAWNIRKLSPTLCWFETWTNVHDIMVSFGRRVLCYPLYRHFKLVMKAYRDTIKILQLGKSAVLKCLLDIHKIFQENDPAYILNDLYISDYCVWIQKVKSKKLAALAEALKEVSLTKAQLGLELEELEAAALLVQEEETALKAAHSVSGQQTLCSSSEASDSEDSDSSVSSGNEDSGSDSEQDELKDSPSETVSSLQGPFLEESSAFLIVDGGVRRNTAIQESDASQGKPLASSWPLGVSGPLIEELGEQLKTTVQVSEPKGTTAVNRSNIQERDGCQTPNN
For the molecule B3, the binding result with Flag-NAF1 [8] is on record as “binds”; with Flag-NHP2 [2], “binds”; in the test with Flag-NAF1 [9] it was “binds”; with Flag-NHP2 [3], “binds”; in test [13], “binds weakly”; with Flag-NAF1 [10], “binds”. In addition, the binding result in the test with Flag-NHP2 [5] and with Flag-NHP2 [6] was “binds” in each case.

B4: dyskerin (protein, UniProt O60832 1-514)
chain: MADAEVIILPKKHKKKKERKSLPEEDVAEIQHAEEFLIKPESKVAKLDTSQWPLLLKNFDKLNVRTTHYTPLACGSNPLKREIGDYIRTGFINLDKPSNPSSHEVVAWIRRILRVEKTGHSGTLDPKVTGCLIVCIERATRLVKSQQSAGKEYVGIVRLHNAIEGGTQLSRALETLTGALFQRPPLIAAVKRQLRVRTIYESKMIEYDPERRLGIFWVSCEAGTYIRTLCVHLGLLLGVGGQMQELRRVRSGVMSEKDHMVTMHDVLDAQWLYDNHKDESYLRRVVYPLEKLLTSHKRLVMKDSAVNAICYGAKIMLPGVLRYEDGIEVNQEIVVITTKGEAICMAIALMTTAVISTCDHGIVAKIKRVIMERDTYPRKWGLGPKASQKKLMIKQGLLDKHGKPTDSTPATWKQEYVDYSESAKKEVVAEVVKAPQVVAEAAKTAKRKRESESESDETPPAAPQLIKKEKKKSKKDKKAKAGLESGAEPGDGDSDTTKKKKKKKKAKEVELVSE
With B4, the binding entry (with GFP-SHQ1 [1]; in the test with Flag-NAF1 [8]; in the test with Flag-NHP2 [2]; with Flag-NAF1 [9]; with Flag-NHP2 [3]; in test [13]) was “binds” each time. Further, the binding result with GFP-SHQ1 [4], in the test with Flag-NAF1 [10], with Flag-NHP2 [5], with Flag-NHP2 [6] and with Flag-NAF1 [12] was “binds” in each case.

B5: NOP10 (protein, UniProt Q9NPE3 1-64)
chain: MFLQYYLNEQGDRVYTLKKFDPMGQQTCSAHPARFSPDDKYSRHRITIKKRFKVLMTQQPRPVL
As to B5, the binding result in the test with GFP-SHQ1 [1], in the test with Flag-NAF1 [8], with Flag-NAF1 [9], in the test with GFP-SHQ1 [4], with Flag-NAF1 [10] and with Flag-NAF1 [12] was “binds” each time.
